PubChem BioAssay AID504764, Drosophila RNAi Screening Center, 2011
In all, the deposit lists about 22,000 reagents; shown is an unselected part of those with a known target gene and a result. Of all reagents, 403 (1.9%) were called active. 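Unnormalised raw counts per well; ratio z-scores behind the hit calls and whether each hit raises or lowers signal are not deposited.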 A plus sign joins genes that one reagent is predicted to hit. Not given: the amount of reagent.

Screen: 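Genome-wide screen for regulators of Notch-driven gene expression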 (primary screen)
Cell system: Drosophila Kc167 cells
Reagent: long dsRNA against Drosophila genes
Duration: about 5 days (4 days dsRNA, then 24 h after transfection)
Conditions: transfection of constitutively active membrane-tethered Notch lacking the extracellular domain, read 24 h later
Detection: 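Light from a Notch-responsive E(spl)m3 luciferase reporter under active Notch, with control-promoter and no-Notch reporter wells to normalise; raw counts from paired wells a and b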
Reading the numbers: induced reporter light, run 1, well a and induced reporter light, run 1, well b: higher = more light from the Notch target reporter with active Notch; control promoter light, run 1, well a and control promoter light, run 1, well b: higher = more light from the viral control promoter (cell number, transfection, viability); uninduced reporter light, run 1, well a: higher = more light from the Notch target reporter without active Notch
Rule for the call: 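Hit if the duplicate-averaged log2 ratio of induced to control-promoter light gives a plate-wise z beyond ±2, or induced to uninduced beyond ±1.8; weak-control or discordant-duplicate wells dropped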
Calls: active = modifier hit (raised or lowered Notch signal); inactive = not a hit

"induced reporter light, run 1, well a","induced reporter light, run 1, well b","control promoter light, run 1, well a","control promoter light, run 1, well b","uninduced reporter light, run 1, well a",activity call,gene,dsRNA
1.16e5,1.09e5,1.64e5,2.32e5,7430,inactive,tko (GeneID 31228),DRSC18844
1.64e5,1.88e5,2.47e5,1.92e5,13870,inactive,Jhbp12 (GeneID 42924),DRSC14621
18865,15738,15360,14150,5720,inactive,CG5079 (GeneID 43089),DRSC15713
2.03e5,2.01e5,2.00e5,2.28e5,16095,inactive,Tsp42En (GeneID 35624),DRSC06185
28160,26395,28380,25045,2665,inactive,CG15747 (GeneID 32288),DRSC19713
74635,79300,71305,22135,8080,inactive,cert (GeneID 38928),DRSC09674
1.20e5,1.09e5,1.35e5,1.45e5,5615,inactive,CG17687 (GeneID 39495),DRSC10279
1.11e5,86620,1.35e5,1.60e5,6415,inactive,CG11906 (GeneID 37209),DRSC06096
1.12e5,1.12e5,1.93e5,1.86e5,9610,inactive,CG4853 (GeneID 36974),DRSC06898
1.29e5,1.22e5,83680,60680,8360,inactive,CG15390 (GeneID 33422),DRSC00404
1.22e5,1.31e5,2.44e5,1.75e5,8470,inactive,Teh4 (GeneID 38501),DRSC08457
92845,74630,85445,1.23e5,10415,inactive,mst (GeneID 33119),DRSC20582
1.90e5,2.48e5,3.29e5,2.66e5,18120,inactive,CG31528 (GeneID 318785),DRSC12003
2.24e5,2.18e5,2.23e5,2.33e5,18090,inactive,Mvk + CG33672 + spt4,DRSC05356
1.79e5,1.61e5,1.80e5,1.81e5,17790,inactive,Mvk + CG33672 + spt4,DRSC06628
1.34e5,1.15e5,1.45e5,1.77e5,7115,inactive,CG34049 (GeneID 3885620),DRSC00104
85730,97660,1.67e5,2.00e5,7230,inactive,CG11007 (GeneID 37249),DRSC06023
1.19e5,1.11e5,1.55e5,1.56e5,9890,inactive,CG7829 (GeneID 43522),DRSC16322
2.18e5,2.66e5,2.64e5,2.74e5,21710,inactive,Spn42Da (GeneID 49805),DRSC05025
1.33e5,1.59e5,1.72e5,1.68e5,10655,inactive,CG11498 (GeneID 43585),DRSC14315
1.27e5,1.42e5,1.43e5,1.57e5,10778,inactive,CG12288 (GeneID 35027),DRSC02155
1.58e5,1.55e5,2.14e5,1.99e5,10635,inactive,Cyp312a1 (GeneID 40005),DRSC11128
1.40e5,1.46e5,1.44e5,1.49e5,15120,inactive,Saf-B (GeneID 42958),DRSC16167
1.85e5,2.26e5,3.02e5,3.66e5,11725,inactive,gsb-n (GeneID 38004),DRSC04021
2.66e5,2.38e5,2.09e5,1.94e5,16475,inactive,gsb-n (GeneID 38004),DRSC04693
56810,61825,1.19e5,1.21e5,6685,inactive,CG8306 (GeneID 36857),DRSC07141
1.21e5,53435,1.39e5,1.15e5,10810,inactive,CG14237 (GeneID 43194),DRSC14731
,,,,,inactive,CR32028 (retired record) (GeneID 3772239),DRSC22959
33525,27575,29490,34975,1640,inactive,CG14563 (GeneID 40435),DRSC11724
1.27e5,1.19e5,98825,1.08e5,8585,inactive,CG10950 (GeneID 36942),DRSC06020
1.32e5,1.10e5,2.41e5,1.99e5,8940,inactive,Uba5 (GeneID 32094),DRSC19775
1.57e5,1.75e5,2.30e5,2.59e5,14530,inactive,CG13603 (GeneID 42838),DRSC14606
1.33e5,1.19e5,1.19e5,1.16e5,9825,inactive,Ace (GeneID 41625),DRSC12959
1.50e5,1.39e5,85195,72525,8425,inactive,Ace (GeneID 41625),DRSC14100
1.67e5,2.39e5,2.35e5,2.61e5,14270,inactive,CG31343 (GeneID 326133),DRSC15887
1.99e5,1.76e5,2.07e5,2.05e5,14228,inactive,CG17193 (GeneID 50044),DRSC15187
88000,88040,1.15e5,1.01e5,8340,inactive,CG17059 (GeneID 50227),DRSC06654
2.26e5,1.86e5,1.51e5,1.53e5,14365,inactive,CG10209 (GeneID 36652),DRSC05980
64035,61045,67220,71220,9920,inactive,CG15641 (GeneID 32477),DRSC19677
1.17e5,1.07e5,1.55e5,1.38e5,8565,inactive,Jon99Fii (GeneID 43621),DRSC15430
96875,1.07e5,1.04e5,93855,7205,inactive,CG17917 (GeneID 40778),DRSC12570
1.63e5,1.59e5,1.28e5,1.51e5,12470,inactive,Cyp6u1 (GeneID 35608),DRSC05015
1.17e5,1.34e5,1.37e5,1.59e5,10455,inactive,pkaap (GeneID 34957),DRSC01925
1.45e5,1.25e5,1.13e5,1.03e5,10615,inactive,Duox (GeneID 33477),DRSC00571
1.68e5,1.88e5,1.97e5,1.66e5,14165,inactive,CG12376 (GeneID 35857),DRSC06144
10590,11075,10475,8085,4750,inactive,CG46385 (GeneID 246653),DRSC06425
1.78e5,1.99e5,2.89e5,2.40e5,16138,inactive,CG46385 (GeneID 246653),DRSC06557
98880,1.20e5,75495,34445,9980,inactive,RNaseX25 (GeneID 38885),DRSC11259
1.39e5,1.24e5,1.70e5,1.43e5,11700,inactive,t-cup (GeneID 318986),DRSC01254
1.98e5,2.05e5,2.29e5,2.19e5,15055,inactive,dpn (GeneID 35800),DRSC07605
83930,1.25e5,1.22e5,1.08e5,11040,inactive,CG12679 (GeneID 33031),DRSC20493
24870,28255,23840,23340,4985,inactive,Wnt4 (GeneID 34007),DRSC00976
1.13e5,1.02e5,1.26e5,1.26e5,6620,inactive,Wnt4 (GeneID 34007),DRSC03477
1.60e5,1.61e5,1.53e5,1.14e5,10550,inactive,CG30259 (GeneID 37606),DRSC04164
1.93e5,1.88e5,2.15e5,1.74e5,12830,inactive,CG30259 (GeneID 37606),DRSC04165
60415,51730,64950,54965,5240,inactive,ND-51 (GeneID 33852),DRSC03145
1.48e5,1.62e5,1.25e5,1.61e5,9970,inactive,THG (GeneID 34876),DRSC01896
2.24e5,1.67e5,2.00e5,2.23e5,7750,inactive,Best3 (GeneID 39661),DRSC09880
45665,44545,28175,24005,20060,inactive,Bx (GeneID 32846),DRSC19350
2.59e5,2.56e5,3.21e5,3.43e5,19140,inactive,sno (GeneID 32273),DRSC20378
1.43e5,1.09e5,1.76e5,1.45e5,8538,inactive,robl62A (GeneID 38170),DRSC08153
57310,43310,74365,41475,6170,inactive,aus (GeneID 42531),DRSC13471
45330,38155,42950,33270,7910,inactive,aus (GeneID 42531),DRSC13473
145,110,260,340,70,inactive,aus (GeneID 42531),DRSC15157

Reformatted: results already given
| induced reporter light, run 1, well a | induced reporter light, run 1, well b | control promoter light, run 1, well a | control promoter light, run 1, well b | uninduced reporter light, run 1, well a | activity call | gene | dsRNA |
| --- | --- | --- | --- | --- | --- | --- | --- |
| 1.57e5 | 1.75e5 | 2.30e5 | 2.59e5 | 14530 | inactive | CG13603 (GeneID 42838) | DRSC14606 |
| 1.33e5 | 1.19e5 | 1.19e5 | 1.16e5 | 9825 | inactive | Ace (GeneID 41625) | DRSC12959 |
| 1.50e5 | 1.39e5 | 85195 | 72525 | 8425 | inactive | Ace (GeneID 41625) | DRSC14100 |
| 1.67e5 | 2.39e5 | 2.35e5 | 2.61e5 | 14270 | inactive | CG31343 (GeneID 326133) | DRSC15887 |
| 1.99e5 | 1.76e5 | 2.07e5 | 2.05e5 | 14228 | inactive | CG17193 (GeneID 50044) | DRSC15187 |
| 88000 | 88040 | 1.15e5 | 1.01e5 | 8340 | inactive | CG17059 (GeneID 50227) | DRSC06654 |
| 2.26e5 | 1.86e5 | 1.51e5 | 1.53e5 | 14365 | inactive | CG10209 (GeneID 36652) | DRSC05980 |
| 64035 | 61045 | 67220 | 71220 | 9920 | inactive | CG15641 (GeneID 32477) | DRSC19677 |
